{"source": "PubChem BioAssay AID504786 – Drosophila RNAi Screening Center | 2011", "purpose": "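Fly genes required for HIF-dependent transcription when hypoxia is mimicked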 (primary screen)", "system": "Drosophila S2 cells with a stable HIF luciferase reporter", "knock-down reagent": "long dsRNA against Drosophila genes, about 0.2 µg dsRNA per well of a 384-well plate", "timing": "three days of knock-down, then 20 h of DFO before reading", "challenge": "desferrioxamine (DFO) at 100 µM, an iron chelator that mimics hypoxia, for 20 h", "measurement": "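Firefly luciferase driven by the mouse ldh-a hypoxia-response element, measured after 20 h of 100 µM DFO; z-scores per plate, higher means more signal lost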", "direction": "z-score: higher = stronger loss of HIF reporter signal", "note": "The screen tested about 21,000 reagents; this is a random part of those with a known target gene and a result. 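Primary screen; positive scores mean lost reporter signal, so the sign may be inverted from the usual convention.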 A plus sign joins genes that one reagent is predicted to hit."}
{"Target gene": "Cog4 (Component of oligomeric golgi complex 4)", "dsRNA": "DRSC03057", "z-score, replicate 1": -0.4, "z-score, replicate 2": -0.3}
{"Target gene": "ewg (erect wing)", "dsRNA": "DRSC18773", "z-score, replicate 1": -0.4, "z-score, replicate 2": -0.5}
{"Target gene": "CG31121", "dsRNA": "DRSC15361", "z-score, replicate 1": -0.1, "z-score, replicate 2": -0.4}
{"Target gene": "CG31121", "dsRNA": "DRSC15363", "z-score, replicate 1": -0.2, "z-score, replicate 2": -0.3}
{"Target gene": "Gpat4 (Glycerol-3-phosphate acyltransferase 4)", "dsRNA": "DRSC04345", "z-score, replicate 1": -0.3, "z-score, replicate 2": -0.1}
{"Target gene": "CG34178 + CG34177", "dsRNA": "DRSC00351", "z-score, replicate 1": -0.1, "z-score, replicate 2": -0.1}
{"Target gene": "CG33099", "dsRNA": "DRSC15774", "z-score, replicate 1": -0.3, "z-score, replicate 2": -0.3}
{"Target gene": "CG9673", "dsRNA": "DRSC20202", "z-score, replicate 1": -0.3, "z-score, replicate 2": -0.3}
{"Target gene": "CG30065", "dsRNA": "DRSC05420", "z-score, replicate 1": -0.1, "z-score, replicate 2": -0.2}
{"Target gene": "DIP-zeta (Dpr-interacting protein zeta)", "dsRNA": "DRSC02203", "z-score, replicate 1": -0.3, "z-score, replicate 2": -0.5}
{"Target gene": "DIP-zeta (Dpr-interacting protein zeta)", "dsRNA": "DRSC02204", "z-score, replicate 1": -0.4, "z-score, replicate 2": -0.4}
{"Target gene": "DIP-zeta (Dpr-interacting protein zeta)", "dsRNA": "DRSC02205", "z-score, replicate 1": 0.1, "z-score, replicate 2": -0.2}
{"Target gene": "CG10384", "dsRNA": "DRSC03933", "z-score, replicate 1": -0.3, "z-score, replicate 2": -0.2}
{"Target gene": "CG10384", "dsRNA": "DRSC04067", "z-score, replicate 1": 0.7, "z-score, replicate 2": 0.7}
{"Target gene": "CG7183", "dsRNA": "DRSC16210", "z-score, replicate 1": -0.3, "z-score, replicate 2": -0.3}
{"Target gene": "hep (hemipterous)", "dsRNA": "DRSC19839", "z-score, replicate 1": -0.3, "z-score, replicate 2": -0.5}
{"Target gene": "hep (hemipterous)", "dsRNA": "DRSC20337", "z-score, replicate 1": -0.3, "z-score, replicate 2": -1}
